Drug screen on melanoma cell lines: cell count

Source: doi:10.1371/journal.pone.0140310, primary screening data, rounded.

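Human melanoma cell lines in 1,536-well plates were treated with two drugs together for 72 h, then fixed, stained and imaged. Each value is the count of nuclei relative to DMSO-treated wells, in %, so that 100 equals the control. Concentrations were fixed for each drug; these are the higher of two levels. These are primary screening values without error estimates.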
This is part of the screen, not chosen by result.

Compounds and concentrations:
lenalidomide, 5 µM: Nc1cccc2c1CN(C1CCC(=O)NC1=O)C2=O (stereo unspecified)
PF-562271, 0.4 µM: CN(c1ncccc1CNc1nc(Nc2ccc3c(c2)CC(=O)N3)ncc1C(F)(F)F)S(C)(=O)=O
NVP-TAE684, 0.4 µM: COc1cc(N2CCC(N3CCN(C)CC3)CC2)ccc1Nc1ncc(Cl)c(Nc2ccccc2S(=O)(=O)C(C)C)n1
GSK0660, 5 µM: COC(=O)c1sccc1S(=O)(=O)Nc1ccc(Nc2ccccc2)cc1OC
ENMD-2076, 0.2 µM: Cc1cc(Nc2cc(N3CCN(C)CC3)nc(/C=C/c3ccccc3)n2)n[nH]1
nilutamide, 5 µM: CC1(C)NC(=O)N(c2ccc([N+](=O)[O-])c(C(F)(F)F)c2)C1=O
embelin, 6 µM: CCCCCCCCCCCC1=C(O)C(=O)C=C(O)C1=O
nilotinib, 1 µM: Cc1cn(-c2cc(NC(=O)c3ccc(C)c(Nc4nccc(-c5cccnc5)n4)c3)cc(C(F)(F)F)c2)cn1
NVP-BEZ235, 0.02 µM: Cn1c(=O)n(-c2ccc(C(C)(C)C#N)cc2)c2c3cc(-c4cnc5ccccc5c4)ccc3ncc21
lapatinib, 4 µM: CS(=O)(=O)CCNCc1ccc(-c2ccc3ncnc(Nc4ccc(OCc5cccc(F)c5)c(Cl)c4)c3c2)o1
stibogluconate, 10 µM: O=C(O)[C@@H]1[O][Sb](=[O])([O][Sb]2(=[O])[O][C@H]([C@H](O)CO)[C@H](O)[C@H](C(=O)O)[O]2)[O][C@H]([C@H](O)CO)[C@@H]1O (stereo partly specified)
XAV939, 10 µM: Oc1nc(-c2ccc(C(F)(F)F)cc2)nc2c1CSCC2
CP-690550, 5 µM: C[C@@H]1CCN(C(=O)CC#N)C[C@@H]1N(C)c1ncnc2[nH]ccc12
fingolimod, 10 µM: CCCCCCCCc1ccc(CCC(N)(CO)CO)cc1
AS-252424, 5 µM: O=C1NC(=O)/C(=C/c2ccc(-c3ccc(F)cc3O)o2)S1
fludarabine, 1 µM: Nc1nc(F)nc2c1ncn2[C@@H]1O[C@H](CO)[C@@H](O)[C@@H]1O
T0901317, 7 µM: O=S(=O)(c1ccccc1)N(CC(F)(F)F)c1ccc(C(O)(C(F)(F)F)C(F)(F)F)cc1
nutlin-3, 0.5 µM: COc1ccc(C2=N[C@@H](c3ccc(Cl)cc3)[C@@H](c3ccc(Cl)cc3)N2C(=O)N2CCNC(=O)C2)c(OC(C)C)c1
RKI-983, 2 µM: C[C@@H](N)c1ccc(C(=O)Nc2ccnc3[nH]ccc23)cc1
OSI-906, 2 µM: C[C@]1(O)C[C@@H](c2nc(-c3ccc4ccc(-c5ccccc5)nc4c3)c3c(N)nccn32)C1

| Combination | C32 | WM451Lu | WM3619 |
|---|---|---|---|
| nilotinib + CP-690550 | 110 | 112 | 131 |
| PF-562271 + nutlin-3 | 55.4 | 48.1 | 68.9 |
| OSI-906 + NVP-BEZ235 | 83.2 | 67.7 | 51.3 |
| fludarabine + stibogluconate | 77.0 | 71.6 | 121 |
| embelin + ENMD-2076 | 79.8 | 106 | 98.9 |
| XAV939 + fingolimod | 65.9 | 68.1 | 62.0 |
| stibogluconate + AS-252424 | 84.7 | 109 | 80.1 |
| NVP-TAE684 + NVP-BEZ235 | 76.9 | 58.7 | 54.9 |
| ENMD-2076 + CP-690550 | 115 | 84.0 | 97.8 |
| RKI-983 + ENMD-2076 | 72.1 | 81.7 | 76.2 |
| stibogluconate + embelin | 96.6 | 62.4 | 71.7 |
| OSI-906 + T0901317 | 102 | 97.8 | 77.5 |
| nutlin-3 + GSK0660 | 66.5 | 108 | 105 |
| NVP-BEZ235 + nilotinib | 74.7 | 76.3 | 48.1 |
| fingolimod + AS-252424 | 8.2 | 9.0 | 2.0 |
| ENMD-2076 + lapatinib | 97.6 | 61.4 | 61.4 |
| GSK0660 + ENMD-2076 | 101 | 97.2 | 63.4 |
| T0901317 + PF-562271 | 55.0 | 70.7 | 73.6 |
| lenalidomide + stibogluconate | 101 | 101 | 141 |
| nilotinib + nilutamide | 98.8 | 85.9 | 83.0 |

For reference, 2 entries once more:

Combination	C32	WM451Lu	WM3619
ENMD-2076 + CP-690550	115	84.0	97.8
PF-562271 + nutlin-3	55.4	48.1	68.9